This is an account of results in publication PMC4667630, “Localized reconstruction of subunits from electron cryomicroscopy images of macromolecular complexes” (Nature Communications, 2015).

Amino acid sequences for entries named in this document (tags omitted). A change or cut given only in a name is not applied to a line headed by its entry.
UniProt P55735: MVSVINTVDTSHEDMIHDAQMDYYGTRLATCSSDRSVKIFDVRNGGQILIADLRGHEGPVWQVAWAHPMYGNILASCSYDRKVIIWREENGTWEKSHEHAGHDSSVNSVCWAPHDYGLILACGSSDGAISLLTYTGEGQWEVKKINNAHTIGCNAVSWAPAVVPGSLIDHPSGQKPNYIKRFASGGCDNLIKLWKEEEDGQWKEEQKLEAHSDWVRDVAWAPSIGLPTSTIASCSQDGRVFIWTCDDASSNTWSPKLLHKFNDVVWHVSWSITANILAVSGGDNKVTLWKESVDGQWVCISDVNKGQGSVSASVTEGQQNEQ

No constants are given. Whether binding was seen depends on the method and setting. Some binding calls cover weakened binding; strength is not graded here.

The assay concerns the target Sec13/31 dimer of the COPII cage (UniProt P55735). Put plainly: cryo-EM structure; native (unfixed) COPII cages, previously published micrographs (ref. 13); octahedral reconstruction, then localized reconstruction of the Sec13/31 vertices.

Consider “Sec13/31 dimer of the COPII cage (from UniProt P55735 1-322; O94979 1-1220) (complex)”, for which the binding result is reported as “binds”.
